In article PMC3944714:
These are yes or no findings as the source states them, for the method shown. In cells and extracts the contact can be indirect. Some binding calls cover weakened binding; strength is not graded here. For part of these data: Where a sequence is shown, tags or fusion partners need not be part of it. Values belong to the binder of their own block, whether it stands above or below them.

Assays:
Assay in all cases: co-IP
Flag-MCAF1 = molecular target: T1, Flag-MCAF1 (UniProt Q6VMQ6)
T1 sequence: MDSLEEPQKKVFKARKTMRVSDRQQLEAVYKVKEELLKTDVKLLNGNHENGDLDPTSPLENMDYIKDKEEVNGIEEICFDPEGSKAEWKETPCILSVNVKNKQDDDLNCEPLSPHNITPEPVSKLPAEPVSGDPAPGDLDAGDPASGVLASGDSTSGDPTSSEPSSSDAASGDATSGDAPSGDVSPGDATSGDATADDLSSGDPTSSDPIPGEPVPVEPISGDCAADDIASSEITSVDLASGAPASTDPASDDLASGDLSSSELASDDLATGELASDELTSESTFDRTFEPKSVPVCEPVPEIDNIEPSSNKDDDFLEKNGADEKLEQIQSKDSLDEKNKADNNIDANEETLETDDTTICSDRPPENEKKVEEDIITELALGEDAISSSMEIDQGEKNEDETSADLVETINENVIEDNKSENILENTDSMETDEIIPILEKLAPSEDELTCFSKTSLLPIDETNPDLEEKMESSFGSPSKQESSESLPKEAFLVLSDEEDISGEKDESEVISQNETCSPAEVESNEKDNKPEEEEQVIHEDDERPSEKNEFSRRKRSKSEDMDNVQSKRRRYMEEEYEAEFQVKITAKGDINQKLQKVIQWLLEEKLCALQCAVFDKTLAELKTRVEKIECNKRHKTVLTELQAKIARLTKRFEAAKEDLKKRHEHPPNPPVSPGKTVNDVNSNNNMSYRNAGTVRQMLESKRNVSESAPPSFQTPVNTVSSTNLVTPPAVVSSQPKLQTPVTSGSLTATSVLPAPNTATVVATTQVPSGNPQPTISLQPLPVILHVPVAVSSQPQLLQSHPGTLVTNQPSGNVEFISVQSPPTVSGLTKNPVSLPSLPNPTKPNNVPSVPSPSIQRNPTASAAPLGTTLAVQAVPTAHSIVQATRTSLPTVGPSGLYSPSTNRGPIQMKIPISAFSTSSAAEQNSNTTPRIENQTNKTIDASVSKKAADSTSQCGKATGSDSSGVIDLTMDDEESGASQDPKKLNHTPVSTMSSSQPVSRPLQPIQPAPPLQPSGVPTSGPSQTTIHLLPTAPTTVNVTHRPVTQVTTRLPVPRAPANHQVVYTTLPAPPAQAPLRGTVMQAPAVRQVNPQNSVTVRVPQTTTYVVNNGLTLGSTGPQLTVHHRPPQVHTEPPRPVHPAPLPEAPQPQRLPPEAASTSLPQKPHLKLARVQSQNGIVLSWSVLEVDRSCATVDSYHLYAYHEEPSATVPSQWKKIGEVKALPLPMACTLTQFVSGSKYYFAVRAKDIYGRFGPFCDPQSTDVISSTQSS

[1] = molecular target: T2, ATF2 (human (endogenous in P3HR1 and 293T)) (UniProt P15336)
T2 sequence: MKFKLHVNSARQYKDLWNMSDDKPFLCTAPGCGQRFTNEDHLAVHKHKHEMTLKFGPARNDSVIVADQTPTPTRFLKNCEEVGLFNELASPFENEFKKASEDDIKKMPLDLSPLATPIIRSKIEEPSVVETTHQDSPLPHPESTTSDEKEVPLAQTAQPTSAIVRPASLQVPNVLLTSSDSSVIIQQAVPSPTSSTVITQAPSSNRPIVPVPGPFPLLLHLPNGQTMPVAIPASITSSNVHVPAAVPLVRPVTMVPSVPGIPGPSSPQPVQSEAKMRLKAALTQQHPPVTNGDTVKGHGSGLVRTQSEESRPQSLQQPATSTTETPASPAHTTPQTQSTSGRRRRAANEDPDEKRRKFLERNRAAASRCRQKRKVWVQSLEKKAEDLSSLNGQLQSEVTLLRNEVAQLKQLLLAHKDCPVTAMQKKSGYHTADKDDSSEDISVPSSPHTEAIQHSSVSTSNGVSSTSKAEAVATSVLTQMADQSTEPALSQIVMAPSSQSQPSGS

[2] = molecular target: T3, MCAF1 (human (endogenous in P3HR1 and 293T)) (UniProt Q6VMQ6)
T3 sequence: T1 sequence

binding (Flag-MCAF1): binds
B1: His-ATF2-N1 (domain or fragment, UniProt P15336 1-119)
chain: MKFKLHVNSARQYKDLWNMSDDKPFLCTAPGCGQRFTNEDHLAVHKHKHEMTLKFGPARNDSVIVADQTPTPTRFLKNCEEVGLFNELASPFENEFKKASEDDIKKMPLDLSPLATPII

binding (Flag-MCAF1): no binding
B2: His-ATF2-N2 (domain or fragment, UniProt P15336 120-323)
chain: RSKIEEPSVVETTHQDSPLPHPESTTSDEKEVPLAQTAQPTSAIVRPASLQVPNVLLTSSDSSVIIQQAVPSPTSSTVITQAPSSNRPIVPVPGPFPLLLHLPNGQTMPVAIPASITSSNVHVPAAVPLVRPVTMVPSVPGIPGPSSPQPVQSEAKMRLKAALTQQHPPVTNGDTVKGHGSGLVRTQSEESRPQSLQQPATSTT

binding [1]: no binding
B3: GFP-MCAF1-M (domain or fragment, UniProt Q6VMQ6 818-1153)
chain: SVQSPPTVSGLTKNPVSLPSLPNPTKPNNVPSVPSPSIQRNPTASAAPLGTTLAVQAVPTAHSIVQATRTSLPTVGPSGLYSPSTNRGPIQMKIPISAFSTSSAAEQNSNTTPRIENQTNKTIDASVSKKAADSTSQCGKATGSDSSGVIDLTMDDEESGASQDPKKLNHTPVSTMSSSQPVSRPLQPIQPAPPLQPSGVPTSGPSQTTIHLLPTAPTTVNVTHRPVTQVTTRLPVPRAPANHQVVYTTLPAPPAQAPLRGTVMQAPAVRQVNPQNSVTVRVPQTTTYVVNNGLTLGSTGPQLTVHHRPPQVHTEPPRPVHPAPLPEAPQPQRLPP

binding [1]: binds
B4: GFP-MCAF1-DM1 (domain or fragment, UniProt Q6VMQ6 562-817)
chain: MDNVQSKRRRYMEEEYEAEFQVKITAKGDINQKLQKVIQWLLEEKLCALQCAVFDKTLAELKTRVEKIECNKRHKTVLTELQAKIARLTKRFEAAKEDLKKRHEHPPNPPVSPGKTVNDVNSNNNMSYRNAGTVRQMLESKRNVSESAPPSFQTPVNTVSSTNLVTPPAVVSSQPKLQTPVTSGSLTATSVLPAPNTATVVATTQVPSGNPQPTISLQPLPVILHVPVAVSSQPQLLQSHPGTLVTNQPSGNVEFI

binding [2]: binds
B5: ATF2 (protein, UniProt P15336 1-505)
chain: T2 sequence

binding (Flag-MCAF1): binds
B6: His-ATF2 (protein, UniProt P15336 1-505)
chain: T2 sequence

binding (Flag-MCAF1): binds
B7: His-ATF2-C (domain or fragment, UniProt P15336 324-505)
chain: ETPASPAHTTPQTQSTSGRRRRAANEDPDEKRRKFLERNRAAASRCRQKRKVWVQSLEKKAEDLSSLNGQLQSEVTLLRNEVAQLKQLLLAHKDCPVTAMQKKSGYHTADKDDSSEDISVPSSPHTEAIQHSSVSTSNGVSSTSKAEAVATSVLTQMADQSTEPALSQIVMAPSSQSQPSGS

binding [1]: binds
B8: MCAF1 (protein, UniProt Q6VMQ6 1-1270)
chain: T1 sequence

binding [1]: binds
B9: GFP-MCAF1-DM2 (domain or fragment, UniProt Q6VMQ6 1154-1270)
chain: EAASTSLPQKPHLKLARVQSQNGIVLSWSVLEVDRSCATVDSYHLYAYHEEPSATVPSQWKKIGEVKALPLPMACTLTQFVSGSKYYFAVRAKDIYGRFGPFCDPQSTDVISSTQSS
